# Test results as given in PubChem BioAssay AID320 (DTP/NCI, 2004).
# The list does not hold the whole screen: it is rich in T/C values a quarter to a half above the control, in often repeated tests (any T/C) and in doses without a T/C. Further doses and runs are listed elsewhere. T/C: endpoint of the treated group in % of that of the vehicle group. Some doses have a count of surviving animals in place of a T/C: the source files T/C as zero there, which appears to mark a toxic dose or a test without result, not a measured value. Some doses without a T/C left all or most animals alive at the check, yet need not have been tolerated: the source hardly ever lists a survival T/C far under the control, and the zero likely stands for such cases as well. Counts of survivors are from the toxicity check (mostly the fifth day) where no day follows; animals may have died later. Schedules are NCI's codes, taken here to give the interval after Q, in days (D) or hours (H), and the number of doses after X. For survival time, this PubChem deposit counts one and a half times the control or more as active, and values a quarter to a half above the control carry no call in these data; other NCI protocols may use other cut-offs. Some doses were run more than once; their values stand side by side, smallest first. Some T/C values are followed by the survivors on the day toxicity was checked, most often the fifth; where none is given, no animal had died by that day.
# Tested on: BDF1 mice, P329 reticulum cell sarcoma ip, survival T/C
# Experiment: NCI In Vivo Anticancer Drug Screen. Data for tumor model P329 Reticulum Cell Sarcoma (intraperitoneal) in B6D2F1 (BDF1) mice
# Conditions: T/C endpoint: median survival time, schedule: Q01DX010 (ip), higher T/C = longer survival
# Protocol: The antitumor activity of compounds was measured in mice bearing transplantable tumors. Survival or tumor size were measured and the results are expressed as the measurement made in the treated group (T) divided by the measurement made in the vehicle treated control group (C). The tumor model used in this assay is P329 Reticulum Cell Sarcoma (intraperitoneal) in B6D2F1 (BDF1) mice
# [1] = dose: 10.0 mg/kg/injection, vehicle: saline
# [2] = dose: 40.0 mg/kg/injection, vehicle: saline
# [3] = dose: 8.0 mg/kg/injection, vehicle: saline
# [4] = dose: 20.0 mg/kg/injection, vehicle: saline
# [5] = dose: 100.0 mg/kg/injection, vehicle: saline
# [6] = dose: 62.5 mg/kg/injection, vehicle: saline
# [7] = dose: 125.0 mg/kg/injection, vehicle: saline
smiles,measurement,setting,value
S=c1nc[nH]c2nc[nH]c12,T/C,"dose: 5.0 mg/kg/injection, vehicle: alkali diluted with saline",131 and 138 % of control
same,T/C,"dose: 10.0 mg/kg/injection, vehicle: alkali diluted with saline",131 and 146 % of control
same,T/C,"dose: 20.0 mg/kg/injection, vehicle: alkali diluted with saline",148 % of control
same,T/C,"dose: 40.0 mg/kg/injection, vehicle: alkali diluted with saline",145 and 147 % of control
same,T/C,"dose: 80.0 mg/kg/injection, vehicle: alkali diluted with saline",127 % of control
COC(=O)[C@@H]1c2cc3c(c(O)c2[C@@H](OC2OC(C)C(OC)C(C)(OC)C2OC)C[C@]1(C)O)C(=O)c1c(O)cc2c(c1C3=O)O[C@H]1O[C@]2(C)[C@H](O)[C@@H](N(C)C)[C@@H]1O (stereo partly drawn),survivor count,"dose: 1000.0 micrograms/kg/injection, vehicle: saline",6 of 6
O=P1(N(CCCl)CCCl)NCCCO1 (stereo not drawn),survivor count,"dose: 22.5 mg/kg/injection, vehicle: saline",6 of 6
same,survivor count,"dose: 45.0 mg/kg/injection, vehicle: saline",6 of 6
same,survivor count,"dose: 90.0 mg/kg/injection, vehicle: saline",6 of 6
same,survivor count,"dose: 180.0 mg/kg/injection, vehicle: saline",6 of 6
O=c1[nH]cc(F)c(=O)[nH]1,T/C,"dose: 5.0 mg/kg/injection, vehicle: saline",125 % of control
same,T/C,[1],134 and 137 % of control
same,survivor count,[2],6 of 6
O=c1cnn(C2OC(CO)C(O)C2O)c(=O)[nH]1 (stereo not drawn),T/C,"dose: 400.0 mg/kg/injection, vehicle: saline",133 % of control
same,T/C,"dose: 800.0 mg/kg/injection, vehicle: saline",140 % of control
same,survivor count,"dose: 1600.0 mg/kg/injection, vehicle: saline",6 of 6
C1CN1c1nc(N2CC2)nc(N2CC2)n1,T/C,"dose: 0.25 mg/kg/injection, vehicle: saline",125 % of control
same,T/C,"dose: 0.5 mg/kg/injection, vehicle: saline",146 % of control
same,survivor count,"dose: 1.0 mg/kg/injection, vehicle: saline",6 of 6
Nc1nc(=S)c2ncn(C3OC(CO)C(O)C3O)c2[nH]1 (stereo not drawn),T/C,"dose: 2.0 mg/kg/injection, vehicle: saline",143 % of control
same,survivor count,[3],6 of 6
O=c1[nH]c(=O)n(C2CC(O)C(CO)O2)cc1F (stereo not drawn),T/C,[4],138 % of control
same,T/C,[2],133 % of control
S=P(N1CC1)(N1CC1)N1CC1,T/C,"dose: 3.0 mg/kg/injection, vehicle: saline",126 and 130 % of control
CS(=O)(=O)OCCC(=O)N1CCN(C(=O)CCOS(C)(=O)=O)CC1,T/C,"dose: 50.0 mg/kg/injection, vehicle: saline",125 % of control
same,T/C,[5],146 % of control
CCCSc1ncnc2nc[nH]c12,T/C,[6],134 % of control
same,survivor count,[7],6 of 6
same,survivor count,"dose: 250.0 mg/kg/injection, vehicle: saline",6 of 6
COS(C)(=O)=O,survivor count,[5],6 of 6
Cc1cc(N(CCCl)CCCl)ccc1N=Nc1ccccc1C(=O)O,T/C,[1],125 % of control
same,T/C,[4],128 and 128 % of control [5 of 6 alive]
same,survivor count,[2],6 of 6
CC(=O)Nc1ccc2nc3ccc(NC(C)=O)cc3[n+](-c3ccccc3)c2c1,T/C,[5],128 % of control
same,T/C,"dose: 200.0 mg/kg/injection, vehicle: saline",142 % of control
CCN(CCNc1ccc(C)c2sc3cc(Cl)ccc3c(=O)c12)CC(C)O (stereo not drawn),survivor count,[6],6 of 6
same,survivor count,[7],6 of 6
O=C(Nc1ccc(C2=NCCN2)cc1)c1cccc(C(=O)Nc2ccc(C3=NCCN3)cc2)c1,T/C,[3],138 and 146 % of control
